# From the supplement of paper PMC7666118
# Protein sequences, listed by entry. Tags and fused reporters are not part of them. Lines headed by an entry give the natural chain unless they say otherwise; changes in a name come on top.
# UniProt P30047: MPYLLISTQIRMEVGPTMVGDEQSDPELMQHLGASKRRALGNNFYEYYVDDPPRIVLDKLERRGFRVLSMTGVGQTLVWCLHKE
# UniProt Q92820: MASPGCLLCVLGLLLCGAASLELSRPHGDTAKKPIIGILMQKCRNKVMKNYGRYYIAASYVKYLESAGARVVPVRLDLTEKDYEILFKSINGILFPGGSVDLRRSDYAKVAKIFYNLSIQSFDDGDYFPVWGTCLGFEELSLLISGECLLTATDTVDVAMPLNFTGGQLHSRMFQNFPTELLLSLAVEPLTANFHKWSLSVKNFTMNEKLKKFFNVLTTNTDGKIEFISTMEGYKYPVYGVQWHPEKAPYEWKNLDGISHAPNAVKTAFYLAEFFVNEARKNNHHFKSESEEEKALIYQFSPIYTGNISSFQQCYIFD
# UniProt Q969S9: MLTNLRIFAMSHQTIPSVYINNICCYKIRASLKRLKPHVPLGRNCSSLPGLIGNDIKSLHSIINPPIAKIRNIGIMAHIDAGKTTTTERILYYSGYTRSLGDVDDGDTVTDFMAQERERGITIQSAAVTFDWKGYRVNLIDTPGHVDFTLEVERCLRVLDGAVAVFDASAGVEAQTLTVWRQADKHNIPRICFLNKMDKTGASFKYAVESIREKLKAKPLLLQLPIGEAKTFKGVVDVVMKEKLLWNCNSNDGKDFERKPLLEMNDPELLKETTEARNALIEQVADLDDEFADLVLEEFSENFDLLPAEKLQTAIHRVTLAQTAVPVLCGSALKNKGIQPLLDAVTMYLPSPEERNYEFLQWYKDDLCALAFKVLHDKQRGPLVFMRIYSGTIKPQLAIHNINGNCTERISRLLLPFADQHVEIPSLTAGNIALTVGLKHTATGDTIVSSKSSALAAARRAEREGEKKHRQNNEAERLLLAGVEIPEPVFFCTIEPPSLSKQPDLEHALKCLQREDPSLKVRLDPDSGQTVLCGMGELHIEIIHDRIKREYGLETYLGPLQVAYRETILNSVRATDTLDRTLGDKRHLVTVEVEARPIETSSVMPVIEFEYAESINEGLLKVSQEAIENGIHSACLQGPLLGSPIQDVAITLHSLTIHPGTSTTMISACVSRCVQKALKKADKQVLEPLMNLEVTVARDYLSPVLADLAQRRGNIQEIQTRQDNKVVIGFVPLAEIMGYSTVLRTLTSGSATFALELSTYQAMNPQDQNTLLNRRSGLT
# UniProt P09958, whole entry: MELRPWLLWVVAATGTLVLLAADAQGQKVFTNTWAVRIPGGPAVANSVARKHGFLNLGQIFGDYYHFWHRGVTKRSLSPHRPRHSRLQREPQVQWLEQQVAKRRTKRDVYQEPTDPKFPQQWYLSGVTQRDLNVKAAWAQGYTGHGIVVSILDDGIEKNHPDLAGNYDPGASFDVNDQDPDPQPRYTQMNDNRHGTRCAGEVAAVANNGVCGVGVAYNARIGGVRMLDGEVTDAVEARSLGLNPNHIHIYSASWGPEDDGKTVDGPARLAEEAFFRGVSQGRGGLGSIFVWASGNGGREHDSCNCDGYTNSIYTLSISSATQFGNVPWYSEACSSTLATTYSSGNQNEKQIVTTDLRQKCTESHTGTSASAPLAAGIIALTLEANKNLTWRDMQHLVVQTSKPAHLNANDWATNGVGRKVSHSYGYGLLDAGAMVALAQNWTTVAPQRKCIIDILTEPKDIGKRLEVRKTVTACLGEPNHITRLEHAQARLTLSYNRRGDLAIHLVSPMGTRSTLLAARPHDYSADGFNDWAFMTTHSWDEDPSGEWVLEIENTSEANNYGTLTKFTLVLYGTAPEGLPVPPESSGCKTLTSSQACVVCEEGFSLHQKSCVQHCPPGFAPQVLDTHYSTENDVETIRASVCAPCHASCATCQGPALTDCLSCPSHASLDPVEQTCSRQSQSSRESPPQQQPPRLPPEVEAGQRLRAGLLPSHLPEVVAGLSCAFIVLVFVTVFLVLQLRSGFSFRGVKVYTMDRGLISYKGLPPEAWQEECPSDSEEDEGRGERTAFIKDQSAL
# UniProt P85037: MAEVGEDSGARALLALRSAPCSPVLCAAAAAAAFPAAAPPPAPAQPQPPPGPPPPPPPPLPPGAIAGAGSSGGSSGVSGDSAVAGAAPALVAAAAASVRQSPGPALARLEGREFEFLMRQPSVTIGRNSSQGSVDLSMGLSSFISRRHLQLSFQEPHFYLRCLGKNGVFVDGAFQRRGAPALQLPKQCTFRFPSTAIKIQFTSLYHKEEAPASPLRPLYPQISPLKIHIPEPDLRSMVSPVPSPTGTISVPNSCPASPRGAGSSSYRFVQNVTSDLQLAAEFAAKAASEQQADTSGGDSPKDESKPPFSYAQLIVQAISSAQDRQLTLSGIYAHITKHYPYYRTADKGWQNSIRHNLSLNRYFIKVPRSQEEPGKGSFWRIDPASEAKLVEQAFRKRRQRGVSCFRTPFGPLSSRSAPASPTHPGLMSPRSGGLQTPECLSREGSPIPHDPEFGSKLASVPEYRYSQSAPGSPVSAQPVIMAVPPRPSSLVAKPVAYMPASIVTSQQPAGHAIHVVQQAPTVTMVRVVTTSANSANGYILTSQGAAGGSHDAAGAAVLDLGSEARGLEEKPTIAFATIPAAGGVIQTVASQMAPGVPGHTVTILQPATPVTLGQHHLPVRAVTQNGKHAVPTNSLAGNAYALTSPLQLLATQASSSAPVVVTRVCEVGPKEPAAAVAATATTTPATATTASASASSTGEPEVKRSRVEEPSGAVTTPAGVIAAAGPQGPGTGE
# UniProt P39748, whole entry: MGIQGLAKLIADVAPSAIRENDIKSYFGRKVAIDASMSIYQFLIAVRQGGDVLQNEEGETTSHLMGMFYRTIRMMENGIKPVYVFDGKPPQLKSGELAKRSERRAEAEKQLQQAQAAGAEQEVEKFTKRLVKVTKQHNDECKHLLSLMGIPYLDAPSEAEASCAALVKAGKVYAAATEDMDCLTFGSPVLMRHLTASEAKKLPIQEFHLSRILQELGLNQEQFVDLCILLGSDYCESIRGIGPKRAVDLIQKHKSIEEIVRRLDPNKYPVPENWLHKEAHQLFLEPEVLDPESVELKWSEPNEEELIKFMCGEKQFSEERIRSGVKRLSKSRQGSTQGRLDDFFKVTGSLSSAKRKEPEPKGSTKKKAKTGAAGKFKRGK
# UniProt Q8TEQ6: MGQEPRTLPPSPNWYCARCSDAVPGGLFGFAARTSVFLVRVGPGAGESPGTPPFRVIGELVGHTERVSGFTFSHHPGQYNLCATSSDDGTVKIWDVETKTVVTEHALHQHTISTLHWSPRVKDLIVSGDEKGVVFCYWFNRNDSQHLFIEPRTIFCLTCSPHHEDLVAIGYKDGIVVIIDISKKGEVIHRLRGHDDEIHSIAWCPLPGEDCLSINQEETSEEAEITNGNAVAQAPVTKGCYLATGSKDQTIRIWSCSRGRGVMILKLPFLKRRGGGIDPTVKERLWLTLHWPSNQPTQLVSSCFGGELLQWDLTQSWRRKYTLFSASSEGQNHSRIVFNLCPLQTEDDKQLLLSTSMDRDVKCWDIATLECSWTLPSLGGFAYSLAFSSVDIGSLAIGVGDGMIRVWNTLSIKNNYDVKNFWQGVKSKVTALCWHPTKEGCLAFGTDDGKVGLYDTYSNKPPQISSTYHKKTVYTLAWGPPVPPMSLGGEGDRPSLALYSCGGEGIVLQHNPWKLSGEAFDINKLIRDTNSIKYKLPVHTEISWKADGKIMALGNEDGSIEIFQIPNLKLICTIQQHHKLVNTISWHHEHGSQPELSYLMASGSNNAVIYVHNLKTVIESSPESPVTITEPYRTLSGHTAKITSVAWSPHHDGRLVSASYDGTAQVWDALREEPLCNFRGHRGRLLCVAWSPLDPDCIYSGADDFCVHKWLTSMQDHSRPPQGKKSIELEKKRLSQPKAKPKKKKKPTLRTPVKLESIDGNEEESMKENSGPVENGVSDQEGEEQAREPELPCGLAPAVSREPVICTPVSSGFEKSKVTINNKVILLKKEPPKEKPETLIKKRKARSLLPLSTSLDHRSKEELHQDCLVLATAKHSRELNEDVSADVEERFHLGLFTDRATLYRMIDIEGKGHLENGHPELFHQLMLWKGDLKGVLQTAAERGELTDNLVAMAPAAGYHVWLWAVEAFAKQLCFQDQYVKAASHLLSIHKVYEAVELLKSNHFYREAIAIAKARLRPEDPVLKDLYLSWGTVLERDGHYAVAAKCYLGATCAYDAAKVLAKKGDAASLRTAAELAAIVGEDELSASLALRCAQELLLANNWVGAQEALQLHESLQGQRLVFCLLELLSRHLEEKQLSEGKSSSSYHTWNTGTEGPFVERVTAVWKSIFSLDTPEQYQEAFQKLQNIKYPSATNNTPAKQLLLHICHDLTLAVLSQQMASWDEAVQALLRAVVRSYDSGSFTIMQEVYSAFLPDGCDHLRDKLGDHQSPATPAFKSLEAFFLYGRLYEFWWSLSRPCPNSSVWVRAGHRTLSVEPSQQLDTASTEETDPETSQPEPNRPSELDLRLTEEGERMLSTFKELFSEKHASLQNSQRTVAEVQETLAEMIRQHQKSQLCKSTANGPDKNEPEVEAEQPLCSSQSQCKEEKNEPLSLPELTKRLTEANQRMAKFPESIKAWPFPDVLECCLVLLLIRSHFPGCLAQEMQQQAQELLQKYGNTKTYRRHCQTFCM
# UniProt Q6PIJ6: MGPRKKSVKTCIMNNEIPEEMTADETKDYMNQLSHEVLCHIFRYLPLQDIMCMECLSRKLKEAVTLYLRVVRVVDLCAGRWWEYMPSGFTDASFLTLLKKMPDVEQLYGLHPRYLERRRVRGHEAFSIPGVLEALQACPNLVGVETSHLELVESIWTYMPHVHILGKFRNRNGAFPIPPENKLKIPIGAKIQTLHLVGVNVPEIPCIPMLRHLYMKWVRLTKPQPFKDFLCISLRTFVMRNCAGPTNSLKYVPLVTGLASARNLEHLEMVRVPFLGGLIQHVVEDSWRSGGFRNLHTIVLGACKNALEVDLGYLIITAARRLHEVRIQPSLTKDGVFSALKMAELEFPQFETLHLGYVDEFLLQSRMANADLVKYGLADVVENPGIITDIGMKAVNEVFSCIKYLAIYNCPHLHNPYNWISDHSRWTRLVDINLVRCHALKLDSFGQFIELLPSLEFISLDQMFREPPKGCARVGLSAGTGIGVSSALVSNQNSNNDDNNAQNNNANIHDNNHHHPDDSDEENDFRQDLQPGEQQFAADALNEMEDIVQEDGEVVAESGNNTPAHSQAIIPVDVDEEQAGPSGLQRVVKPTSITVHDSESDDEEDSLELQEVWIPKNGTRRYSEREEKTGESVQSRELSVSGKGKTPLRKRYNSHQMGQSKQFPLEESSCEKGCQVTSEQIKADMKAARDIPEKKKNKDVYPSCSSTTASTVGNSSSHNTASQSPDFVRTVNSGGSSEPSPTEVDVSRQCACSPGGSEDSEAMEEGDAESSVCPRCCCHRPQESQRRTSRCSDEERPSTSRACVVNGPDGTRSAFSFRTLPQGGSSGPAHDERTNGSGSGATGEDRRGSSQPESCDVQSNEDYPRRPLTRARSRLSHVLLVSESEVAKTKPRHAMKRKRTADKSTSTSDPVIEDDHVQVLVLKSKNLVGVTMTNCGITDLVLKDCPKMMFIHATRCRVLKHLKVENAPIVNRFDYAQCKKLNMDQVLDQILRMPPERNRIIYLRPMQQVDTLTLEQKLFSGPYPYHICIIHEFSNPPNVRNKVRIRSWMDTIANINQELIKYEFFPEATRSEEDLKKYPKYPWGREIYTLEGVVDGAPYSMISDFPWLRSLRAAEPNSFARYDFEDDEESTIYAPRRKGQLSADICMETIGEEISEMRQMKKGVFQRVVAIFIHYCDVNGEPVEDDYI
# Some of the results follow.
# Compound: COc1ccc(Cn2ccc3cc(C)c(C(=O)NO)cc32)cc1
# Assay: dose-dependent thermal stabilisation call (2D-TPP, DLPTP, 10% FDR) (binary (1 = stabilised)); higher = stabilised by the compound
# Details: system: HL-60 intact cells; concentration range 0.04-10 µM
# Description: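 2D thermal proteome profiling in intact HL-60 cells treated with BRD-3811 (0, 0.04, 0.29, 2, 10 uM) for 90 min at 37 C, then heated 3 min at one of 12 temperatures (42-63.9 C). Soluble protein was quantified by TMT10 MS. The value is the DLPTP call of the paper: dose-dependent thermal stabilisation over all temperatures at 10% FDR (F-test of a dose-response against a flat model); one experiment, one call per tested protein.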
row,Target,dose-dependent thermal stabilisation call
1,GCHFR (UniProt P30047),inactive: 0
2,GGH (UniProt Q92820),inactive: 0
3,GCOM1,inactive: 0
4,GFM2 (UniProt Q969S9),inactive: 0
5,FURIN (UniProt P09958),inactive: 0
6,FOXK1 (UniProt P85037),inactive: 0
7,FEN1 (UniProt P39748),inactive: 0
8,GEMIN5 (UniProt Q8TEQ6),inactive: 0
9,FBXO38 (UniProt Q6PIJ6),inactive: 0
